Measurements taken from PMC7664202.
These are yes or no findings as the source states them, for the method shown. In cells and extracts the contact can be indirect. Some results given as binding are weak or reduced against the parent protein; the word gives no strength. Values belong to the molecule of their own block, whether it stands above or below them.

Protein sequences, listed by entry. Tags and fused reporters are not part of them.
UniProt O94953: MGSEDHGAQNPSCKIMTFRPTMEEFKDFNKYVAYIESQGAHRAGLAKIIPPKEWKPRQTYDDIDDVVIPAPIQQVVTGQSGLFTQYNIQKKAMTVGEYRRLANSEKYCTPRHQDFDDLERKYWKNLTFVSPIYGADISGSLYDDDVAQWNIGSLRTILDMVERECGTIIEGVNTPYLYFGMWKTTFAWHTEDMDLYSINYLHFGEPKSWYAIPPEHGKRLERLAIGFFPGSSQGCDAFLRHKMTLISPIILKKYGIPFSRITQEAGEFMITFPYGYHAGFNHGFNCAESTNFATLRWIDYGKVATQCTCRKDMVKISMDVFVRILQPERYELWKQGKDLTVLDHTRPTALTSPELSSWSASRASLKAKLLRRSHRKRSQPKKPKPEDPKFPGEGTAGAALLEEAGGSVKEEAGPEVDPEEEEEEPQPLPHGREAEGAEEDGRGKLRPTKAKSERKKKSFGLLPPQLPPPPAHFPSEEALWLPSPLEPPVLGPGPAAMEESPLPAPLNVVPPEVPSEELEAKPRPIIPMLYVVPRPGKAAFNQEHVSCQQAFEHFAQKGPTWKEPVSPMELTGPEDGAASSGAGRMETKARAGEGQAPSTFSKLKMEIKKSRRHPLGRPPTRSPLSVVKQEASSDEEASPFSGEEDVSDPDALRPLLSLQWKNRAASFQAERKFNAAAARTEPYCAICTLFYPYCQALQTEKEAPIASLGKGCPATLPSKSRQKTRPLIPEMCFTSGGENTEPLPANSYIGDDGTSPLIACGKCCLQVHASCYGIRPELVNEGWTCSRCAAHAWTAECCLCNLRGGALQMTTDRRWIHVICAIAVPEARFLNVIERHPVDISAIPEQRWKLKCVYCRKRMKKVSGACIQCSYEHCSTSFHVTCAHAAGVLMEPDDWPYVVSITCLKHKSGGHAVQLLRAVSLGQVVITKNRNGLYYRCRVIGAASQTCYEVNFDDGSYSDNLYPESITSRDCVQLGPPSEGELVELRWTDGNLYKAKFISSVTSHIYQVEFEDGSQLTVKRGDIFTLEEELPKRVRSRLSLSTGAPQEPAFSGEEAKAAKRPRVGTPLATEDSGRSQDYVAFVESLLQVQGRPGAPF

Key:
[1] = target: T1, liver X receptor α (LXRα) (human (endogenous in HepG2)) (UniProt Q13133); experiment: co-IP; HepG2 cells infected with Ad-JMJD2B and incubated with T0901317 for 24 h; lysis in 25 mM Tris-HCl pH 7.4, 150 mM NaCl, 1% NP-40, 1 mM EDTA, 5% glycerol; 500 μg protein; IP with JMJD2B antibody overnight at 4 °C, Protein A/G Plus-Agarose, blot for LXRα; reverse IP with LXRα antibody and blot for JMJD2B (Figure S2)
T1 sequence: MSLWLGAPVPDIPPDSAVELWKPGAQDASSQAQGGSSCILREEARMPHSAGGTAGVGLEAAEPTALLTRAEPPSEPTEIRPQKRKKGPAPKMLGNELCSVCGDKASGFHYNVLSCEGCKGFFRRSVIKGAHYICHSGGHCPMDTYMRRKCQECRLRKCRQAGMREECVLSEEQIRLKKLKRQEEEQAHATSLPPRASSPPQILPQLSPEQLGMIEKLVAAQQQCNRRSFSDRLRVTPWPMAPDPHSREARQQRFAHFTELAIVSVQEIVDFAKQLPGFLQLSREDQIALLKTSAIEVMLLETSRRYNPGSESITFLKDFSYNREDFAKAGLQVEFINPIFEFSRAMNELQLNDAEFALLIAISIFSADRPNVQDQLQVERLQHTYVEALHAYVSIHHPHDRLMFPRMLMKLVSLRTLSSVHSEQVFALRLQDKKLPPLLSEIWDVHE

[2] = target: T1, liver X receptor α (LXRα) (human (endogenous in HepG2)); experiment: condition: only cells not treated with the LXRα agonist T0901317; co-IP; as a1, but HepG2 cells infected with Ad-JMJD2B and incubated in the absence of T0901317
[3] = target: Jumonji domain-containing protein 2B (JMJD2B) (UniProt O94953); experiment: co-IP; HepG2 cells infected with Ad-JMJD2B and incubated with T0901317 for 24 h; lysis in 25 mM Tris-HCl pH 7.4, 150 mM NaCl, 1% NP-40, 1 mM EDTA, 5% glycerol; 500 μg protein; IP with JMJD2B antibody overnight at 4 °C, Protein A/G Plus-Agarose, blot for LXRα; reverse IP with LXRα antibody and blot for JMJD2B (Figure S2)
[4] = target: Jumonji domain-containing protein 2B (JMJD2B) (UniProt O94953); experiment: condition: only cells not treated with the LXRα agonist T0901317; co-IP; as a1, but HepG2 cells infected with Ad-JMJD2B and incubated in the absence of T0901317

binding [1]: binds
binding [2]: no binding
Molecule: Jumonji domain-containing protein 2B (JMJD2B) (from UniProt O94953 1-1096) (enzyme)

binding [3]: binds
binding [4]: no binding
B1: liver X receptor α (LXRα) (receptor, UniProt Q13133 1-447)
chain: T1 sequence
